# Assay results: PubChem BioAssay AID1645882 (National Center for Advancing Translational Sciences (NCATS), 2021)
# Protein sequences, listed by entry. Tags and fused reporters are not part of them. Lines headed by an entry give the natural chain unless they say otherwise; changes in a name come on top.
# UniProt O95398: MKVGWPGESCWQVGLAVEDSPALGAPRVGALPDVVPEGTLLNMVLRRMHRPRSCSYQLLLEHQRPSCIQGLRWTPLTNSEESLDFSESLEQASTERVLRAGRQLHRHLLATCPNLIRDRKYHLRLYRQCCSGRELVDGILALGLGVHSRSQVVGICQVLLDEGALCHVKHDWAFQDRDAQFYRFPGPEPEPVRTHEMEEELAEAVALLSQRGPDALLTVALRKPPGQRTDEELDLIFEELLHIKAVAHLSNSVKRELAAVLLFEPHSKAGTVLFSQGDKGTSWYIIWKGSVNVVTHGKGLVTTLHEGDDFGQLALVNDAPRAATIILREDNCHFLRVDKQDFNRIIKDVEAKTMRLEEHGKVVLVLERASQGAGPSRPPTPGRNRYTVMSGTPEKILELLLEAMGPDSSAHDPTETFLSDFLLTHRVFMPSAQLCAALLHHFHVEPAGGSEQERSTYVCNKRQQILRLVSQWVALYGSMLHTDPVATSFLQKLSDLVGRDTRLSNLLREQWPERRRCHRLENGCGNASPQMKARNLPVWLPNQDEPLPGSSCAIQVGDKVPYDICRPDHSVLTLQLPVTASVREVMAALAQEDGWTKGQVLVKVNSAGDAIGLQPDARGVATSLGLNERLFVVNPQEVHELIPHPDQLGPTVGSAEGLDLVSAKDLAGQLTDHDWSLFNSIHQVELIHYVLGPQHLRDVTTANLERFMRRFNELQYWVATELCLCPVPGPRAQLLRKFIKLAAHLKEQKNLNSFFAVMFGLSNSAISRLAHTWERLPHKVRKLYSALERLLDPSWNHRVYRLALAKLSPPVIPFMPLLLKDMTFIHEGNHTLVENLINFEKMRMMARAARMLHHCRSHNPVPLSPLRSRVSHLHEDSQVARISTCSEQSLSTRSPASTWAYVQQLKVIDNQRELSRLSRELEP
# Several values for one entry are separate records, joined by “and”; a condition that tells them apart may be missing. Equal values may be shown once. What follows is the remainder of the data, with few or none of the hits. Records with an inconclusive call do not appear. Activity calls are given as the source filed them. The call rests on the fitted dose curve; in most records, active means well fitted inhibition curve with a large enough effect; inconclusive means small, poorly fitted or top-dose-only effect; inactive means no such curve, though single readings can be large or run the other way.
# Molecular target: Rap guanine nucleotide exchange factor 3 (Homo sapiens) (UniProt O95398)
# Test: Validation qHTS for antagonist of cAMP-regulated guanine nucleotide exchange factor 3 (EPAC1);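 further: plate controls were DMSO for no effect and ATA control for full effect; nearly all actives have a fitted effect of over 75% in size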
# Conditions: EPAC1 Rap1B-BODIPY-GDP exchange, fluorescence
# Description: Assay Provider (PI): Xiaodong Cheng Ph.D.
# The University of Texas Medical Branch, […], TX
# In multi-cellular eukaryotic organisms, the effects of cAMP are transduced by two ubiquitously-expressed intracellular cAMP receptors, the classic protein kinase A/cAMP-dependent protein kinase (PKA/cAPK) and the more recently discovered exchange protein directly activated by cAMP/cAMP-regulated guanine nucleotide exchange factor (EPAC/cAMP-GEF). Both PKA and EPAC are ubiquitously expressed in all tissues, and an increase in intracellular cAMP levels will lead to the activation of both PKA and EPAC. Therefore, careful dissections of the individual role and relative contribution of EPAC and PKA within the overall cAMP signaling in various model systems are critical for further elucidating the mechanism of cAMP signaling. To date no EPAC-specific antagonists and agonist, as well as isoform-specific agonists have been reported, and developing EPAC-specific pharmacological probes to determine the physiological functions that EPAC play in the overall cAMP-mediated signaling remains a major challenge within the research field. Furthermore, identified regulators of EPAC may lead to new mechanism-based therapeutic strategies specifically targeting the EPAC / cAMP-signaling components as EPAC has been implicated to play important roles in major human pathological conditions such as diabetes, heart disease, and cancer.
# This qHTS will be used to screen the Molecular Libraries Small Molecule Repository (MLSMR) as a concentration-titration series using the NCGC unique quantitative screening (qHTS) platform to find activators for EPAC1. In addition, this assay will also be used as a counterscreen for the EPAC2 qHTS. This fluorescent based assay is developed and validated for EPAC1 that measures exchange using EPAC effector Rap1 complex with BODIPY-GDP, a GDP analog with a tethered fluorophores. Activators are identified by monitoring the change in fluorescence signal as the exchanged free BODIPY-GDP has a reduced fluorescence compared to Rap1-bound BODIPY-GDP. Increase in signal (activation) is the desired outcome for the EPAC1 agonist while no activity in this assay is desired for the EPAC2 agonist counterscreen.
# [1] de Rooij, J., Zwartkruis, F. J., Verheijen, M. H., Cool, R. H., Nijman, S. M., Wittinghofer, A., and Bos, J.L. (1998) Nature 396, 474-477.
# Briefly, three uL of reagents (100 nM EPAC1, 250 nM RAP1B-BODIPY-GDP, 50 uM GDP) were dispensed into a 1536-well Greiner black solid-bottom medium binding assay plate. Controls and test compounds (23 nL) were transferred to the plate via a Kalypsys pin tool equipped with a 1536-pin array. […] The assay plates were read at 5 minute intervals for 30 minutes in the ViewLux plate reader using 480nm excitation and 540nm emission filters. […]
smiles,measurement,setting,value
Nc1ccc(N)c([N+](=O)[O-])c1,"activity change, negative = inhibition",at 320 µM (top of the series),inactive: -7.03%
Cc1c(C(=O)NN2CCCCC2)nn(-c2ccc(Cl)cc2Cl)c1-c1ccc(I)cc1,"activity change, negative = inhibition",at 150 µM (top of the series),inactive: -7.76%
Cc1cccc(CCN2CCC(C(=O)c3ccc(NS(C)(=O)=O)cc3)CC2)n1,"activity change, negative = inhibition",at 150 µM (top of the series),inactive: 18.3% and inactive: -1.26%
same,"activity change, negative = inhibition",at 201 µM (top of the series),inactive: 31.8%
